The text below walks through data of PubChem BioAssay AID445 (National Center for Advancing Translational Sciences (NCATS), 2006).

The assay can be described thus: IkB Signaling. As to conditions: ABC-DLBCL IkBa-CBG/CBR dual luciferase ratio (green luciferase fused to IkBa over red control in OCI-Ly3 lymphoma cells), 4 h. The method, boiled down: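 Curves were fitted separately to fusion (green), unfused (red) and ratio luminescence, then classed by r2, magnitude and activity. Cells: OCI-Ly3, 4 h compound plus doxycycline at 37C; 10 uM MG-132 defined full response.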
Setting [1] is: measured here: control luc red channel unless noted.

One may read the AC50 as the concentration giving half of the maximal activity seen.

The other results are listed elsewhere or left out. Shown are side measurements of this screen, not its main read-out; they come without a call. Most of these compounds were active or inconclusive in the main read-out, so they are no random draw. Potencies come from curve fits of mixed quality, noted in brackets.

Turning to `COc1ccc(S(=O)(=O)c2c(O)c(C)cc(NS(=O)(=O)c3ccc(Cl)cc3)c2C(C)C)cc1`, the AC50 under setting [1] was 12.6 µM [falling, partial curve]. `Cc1ccc2c(c1)C(c1ccccc1)N(C(=O)c1ccc(S(=O)(=O)N3CCCC3)cc1)CC(=O)N2` (stereo unspecified): the AC50 under setting [1] is 1 µM [falling, partial curve]. `Nc1nc(NC(=O)c2cccnc2)nn1-c1ccccc1`: the AC50 under setting [1] is 12.6 µM [falling, partial curve]. With `COc1ccc2sc(N(Cc3cccnc3)C(=O)c3cccs3)nc2c1`, the AC50 under setting [1] is 15.8 µM [falling, partial curve]. On the same count and under the same terms, the figure for `COc1ccc2sc(N(Cc3cccnc3)C(=O)C3COc4ccccc4O3)nc2c1` (stereo unspecified) is 2.51 µM [rising, partial curve, poor fit]; for `COc1ccc(-c2nn(-c3ccccc3)cc2C(=O)Nc2nc(CC(C)=O)ns2)cc1` it is 20 µM [falling, partial curve]. Take `CCOC(=O)/C(C#N)=C/c1ccc(-c2ccccc2)o1`: the AC50 under setting [1] was 39.8 µM [falling, single point]. For the molecule `O=C(OCC(=O)N(C1CCCCC1)C1CCCCC1)c1ccncc1`, under setting [1], the AC50 is 15.8 µM [falling, partial curve].

Regarding `O=C(Cn1cc2c(n1)CCCC2)Nc1cc(C(F)(F)F)ccc1Cl`, the AC50 under setting [1] was 15.8 µM [rising, partial curve, poor fit]. For the molecule `FC(F)(F)c1ccc(N2CCOCC2)c(Nc2nc3ccccc3n3cnnc23)c1`, the AC50 under setting [1] was 10 µM [falling, partial curve]. Same read-out and setting: the figure for `Cc1nc(SCc2ccccc2Cl)c(C#N)c(C)c1C` is 0.316 µM [rising, full curve]; for `Cc1cc(C)cc(NC(=O)c2sc3nc4n(c(=O)c3c2C)N=C(c2ccc(F)cc2)CS4)c1` it is 6.31 µM [rising, single point]; for `COC(=O)c1ccccc1NC(=O)CCC(=O)N1CC(C)Sc2ccccc21` (stereo unspecified) it is 15.8 µM [falling, partial curve].

As to `COC(=O)C(NC(=O)CCc1c(C)nc2cc(-c3cccc(F)c3)nn2c1C)C(C)C` (stereo unspecified), the AC50 under setting [1] was 2.51 µM [falling, partial curve]. For `CCC(Cc1ccccc1)NC(=O)CCS(=O)(=O)c1cc2c(cc1Cl)NC(=O)CO2` (stereo unspecified), under setting [1], the AC50 was 25.1 µM [falling, single point].

Consider `CCOc1ccc2c(c1)c(=O)c(C(=O)c1ccc3c(c1)OCO3)cn2Cc1cccc(F)c1`, for which the AC50 under setting [1] is 39.8 µM [falling, single point].

Regarding `CCOc1ccc(-n2c(C)nc3cc(C(=O)NCc4ccc(C)cc4)ccc32)cc1`, the AC50 under setting [1] is 39.8 µM [falling, partial curve].

As to `COC(=O)Nc1nc2ccc(C(=O)c3ccccc3)cc2[nH]1`, the half-maximal activity concentration (AC50) runs as follows: (measured here: IkB-luc green channel) 1.26 µM [rising, full curve]; (measured here: control luc red channel) 1.58 µM [rising, full curve].

For the molecule `CCn1c(=O)cc(SCC(=O)Nc2cc(Cl)ccc2OC)c2ccccc21`, the AC50 under setting [1] was 20 µM [falling, partial curve].

In the case of `Cc1ccc(C(=O)Nc2nnc(S(=O)(=O)N(C)Cc3ccc(F)cc3)s2)cc1`, the AC50 under setting [1] is 3.16 µM [falling, single point]. For the molecule `CCOc1ccc(-c2nnc(SCC(=O)Oc3ccccc3)o2)cc1`, the AC50 under setting [1] is 7.94 µM [falling, full curve]. For `O=C(CCCCCN1C(=O)c2ccccc2C1=O)Nc1ccc(S(=O)(=O)N2CCCCC2)cc1`, the AC50 under setting [1] is 15.8 µM [falling, partial curve].

Turning to `CSc1ccc(NC(=O)NCCCN2CCN(c3ccccc3F)CC2)cc1`, the AC50 under setting [1] was 10 µM [falling, partial curve]. For the molecule `CC1CCCN(c2nc(-c3ccccc3O)nc3ccccc23)C1` (stereo unspecified), the AC50 under setting [1] is 31.6 µM [falling, partial curve, poor fit].

With `O=c1c2c3c(sc2nnn1Cc1ccc(F)cc1)CCCC3`, the AC50 under setting [1] was 0.00631 µM [rising, full curve, poor fit].

As to `CCc1cccc(NC(=O)CSc2n[nH]c(-c3ccccc3Cl)n2)c1`, the AC50 under setting [1] is 39.8 µM [falling, partial curve]. On the same count and under the same terms, the figure for `O=C(Nc1ccc2nc(SCCOc3ccccc3Cl)sc2c1)c1ccco1` is 25.1 µM [falling, single point]; for `Cc1nnc(N2CCN(c3cccc(Cl)c3)CC2)c2c1nnn2Cc1ccc(F)cc1` it is 12.6 µM [falling, partial curve]; for `COc1cccc(-c2nn(C)c3sc(C(=O)NCCc4cccc(C)c4)cc23)c1` it is 2 µM [falling, full curve]. As for `N=C(N)SCCc1ccc(OCc2ccc([N+](=O)[O-])cc2)cc1`, the AC50 under setting [1] was 31.6 µM [falling, partial curve]. For `CCOc1ccc(OCC)c(NC(=O)c2cnn(-c3ccc(F)cc3)c2C2CCN(C(=O)OC(C)(C)C)CC2)c1`, the AC50 under setting [1] was 10 µM [falling, partial curve]. Still for that read-out and setting: in the case of `CCC(=O)N1CCCc2cc(S(=O)(=O)N3CCN(c4ccccc4F)CC3)ccc21` it was 12.6 µM [falling, partial curve]; in that of `COc1cc(N2C(=O)CSC23C(=O)N(Cc2cccc(F)c2)c2ccccc23)cc(OC)c1OC` (stereo unspecified), 15.8 µM [falling, partial curve]; in that of `CCOC(=O)Cn1c(=O)n(CC2CCCO2)c2nc(-c3ccc(OCC)cc3)nc(C(N)=O)c21` (stereo unspecified), 0.398 µM [falling, full curve].

`COc1ccccc1Nc1c2c(nc3ccc(NC(=O)c4ccc(OC)c(OC)c4)cc13)CCCC2`: under setting [1], the AC50 is 31.6 µM [falling, partial curve]. With `Cc1ccc(-n2ncc(C(=O)NCc3ccccc3)c2C2CCN(C(=O)OC(C)(C)C)CC2)cc1`, the AC50 under setting [1] was 20 µM [falling, partial curve]. Regarding `CCOC(=O)c1cc(-c2ccc(OC)c(S(=O)(=O)NC3CCCCC3)c2)on1`, the AC50 under setting [1] is 31.6 µM [falling, single point].

Turning to `Cn1c(=O)[nH]c(=O)c2c1nc(Sc1nc3ccccc3s1)n2Cc1ccccc1`, the half-maximal activity concentration (AC50) under setting [1] is 39.8 µM [falling, single point]. Still for that read-out and setting: the figure for `COc1ccc(CCNC(=O)CN2C(=O)COc3ccc(C)cc32)cc1OC` is 20 µM [falling, single point]; for `COCCCNC(=O)c1c(-c2ccccc2)c(-c2ccccc2)nn(C)c1=O` it is 0.398 µM [rising, full curve].
